Measurements as given in the supplement of paper PMC10849652.
The list shows a part of the results. Residues, ends and D or L forms follow the SMILES beside them. *: point of attachment. Cbz = O=C(OCc1ccccc1)*

Sequences of proteins named here, by UniProt entry; tags and fusion partners are left off. A change or cut given only in a name is not applied to a line headed by its entry.
UniProt Q8WWH5: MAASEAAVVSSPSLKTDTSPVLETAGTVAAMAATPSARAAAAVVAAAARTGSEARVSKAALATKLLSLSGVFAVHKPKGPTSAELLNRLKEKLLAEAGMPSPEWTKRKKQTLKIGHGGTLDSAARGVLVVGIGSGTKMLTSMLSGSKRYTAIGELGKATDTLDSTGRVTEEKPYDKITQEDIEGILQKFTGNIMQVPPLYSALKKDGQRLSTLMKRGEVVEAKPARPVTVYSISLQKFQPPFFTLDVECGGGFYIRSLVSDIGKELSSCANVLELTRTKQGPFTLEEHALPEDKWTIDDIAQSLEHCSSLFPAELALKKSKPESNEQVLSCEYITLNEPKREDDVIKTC
UniProt O43399: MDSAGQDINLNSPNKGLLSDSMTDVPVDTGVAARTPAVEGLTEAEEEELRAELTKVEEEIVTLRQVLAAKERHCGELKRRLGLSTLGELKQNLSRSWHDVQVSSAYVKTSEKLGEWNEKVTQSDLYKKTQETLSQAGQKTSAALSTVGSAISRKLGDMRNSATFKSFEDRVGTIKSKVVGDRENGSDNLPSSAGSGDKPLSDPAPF
UniProt Q9BQ61: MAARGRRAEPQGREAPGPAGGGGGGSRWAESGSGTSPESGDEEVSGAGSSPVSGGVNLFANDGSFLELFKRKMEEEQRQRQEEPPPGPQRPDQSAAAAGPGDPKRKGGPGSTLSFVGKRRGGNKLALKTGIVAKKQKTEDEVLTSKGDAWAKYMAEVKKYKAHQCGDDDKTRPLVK
UniProt Q96Q11: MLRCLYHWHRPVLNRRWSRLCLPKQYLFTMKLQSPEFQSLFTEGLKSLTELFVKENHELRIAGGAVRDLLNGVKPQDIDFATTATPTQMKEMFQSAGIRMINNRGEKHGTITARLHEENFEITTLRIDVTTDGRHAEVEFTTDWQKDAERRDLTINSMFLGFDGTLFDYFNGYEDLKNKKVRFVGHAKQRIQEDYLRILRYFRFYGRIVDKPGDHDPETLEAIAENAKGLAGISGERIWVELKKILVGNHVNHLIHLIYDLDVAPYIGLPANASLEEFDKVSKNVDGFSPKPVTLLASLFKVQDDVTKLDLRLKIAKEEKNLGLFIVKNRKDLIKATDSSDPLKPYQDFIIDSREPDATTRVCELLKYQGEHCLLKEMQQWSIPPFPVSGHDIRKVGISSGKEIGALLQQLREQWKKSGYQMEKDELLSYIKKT
UniProt Q15650: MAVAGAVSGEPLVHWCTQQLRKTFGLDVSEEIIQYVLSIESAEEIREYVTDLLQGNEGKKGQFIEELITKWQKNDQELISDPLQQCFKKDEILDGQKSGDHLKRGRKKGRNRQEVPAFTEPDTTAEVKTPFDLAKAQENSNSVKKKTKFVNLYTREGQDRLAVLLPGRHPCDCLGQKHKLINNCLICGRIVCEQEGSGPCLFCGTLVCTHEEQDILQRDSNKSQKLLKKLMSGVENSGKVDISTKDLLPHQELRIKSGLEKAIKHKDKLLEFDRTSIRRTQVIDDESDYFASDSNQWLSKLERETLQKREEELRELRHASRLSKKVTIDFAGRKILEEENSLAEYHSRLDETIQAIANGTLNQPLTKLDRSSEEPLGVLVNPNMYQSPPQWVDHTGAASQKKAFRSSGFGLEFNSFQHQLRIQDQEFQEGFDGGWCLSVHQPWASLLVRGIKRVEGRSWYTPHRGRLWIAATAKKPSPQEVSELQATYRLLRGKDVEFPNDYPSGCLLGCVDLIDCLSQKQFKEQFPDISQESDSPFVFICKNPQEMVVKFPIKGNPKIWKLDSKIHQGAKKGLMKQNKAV
UniProt Q8IUR0, whole entry, looked up: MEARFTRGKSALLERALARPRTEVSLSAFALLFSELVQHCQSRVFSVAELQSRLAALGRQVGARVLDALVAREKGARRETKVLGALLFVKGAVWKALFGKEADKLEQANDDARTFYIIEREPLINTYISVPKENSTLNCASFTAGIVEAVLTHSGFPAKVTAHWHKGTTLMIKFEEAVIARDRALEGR
UniProt P67936, whole entry, looked up: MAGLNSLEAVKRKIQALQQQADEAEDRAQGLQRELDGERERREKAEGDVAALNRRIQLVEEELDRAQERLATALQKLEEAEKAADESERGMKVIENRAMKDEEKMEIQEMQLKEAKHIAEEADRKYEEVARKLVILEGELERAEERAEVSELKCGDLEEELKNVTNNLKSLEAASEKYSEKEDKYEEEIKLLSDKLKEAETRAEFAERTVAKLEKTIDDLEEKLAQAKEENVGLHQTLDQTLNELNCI
UniProt Q96Q05, whole entry, looked up: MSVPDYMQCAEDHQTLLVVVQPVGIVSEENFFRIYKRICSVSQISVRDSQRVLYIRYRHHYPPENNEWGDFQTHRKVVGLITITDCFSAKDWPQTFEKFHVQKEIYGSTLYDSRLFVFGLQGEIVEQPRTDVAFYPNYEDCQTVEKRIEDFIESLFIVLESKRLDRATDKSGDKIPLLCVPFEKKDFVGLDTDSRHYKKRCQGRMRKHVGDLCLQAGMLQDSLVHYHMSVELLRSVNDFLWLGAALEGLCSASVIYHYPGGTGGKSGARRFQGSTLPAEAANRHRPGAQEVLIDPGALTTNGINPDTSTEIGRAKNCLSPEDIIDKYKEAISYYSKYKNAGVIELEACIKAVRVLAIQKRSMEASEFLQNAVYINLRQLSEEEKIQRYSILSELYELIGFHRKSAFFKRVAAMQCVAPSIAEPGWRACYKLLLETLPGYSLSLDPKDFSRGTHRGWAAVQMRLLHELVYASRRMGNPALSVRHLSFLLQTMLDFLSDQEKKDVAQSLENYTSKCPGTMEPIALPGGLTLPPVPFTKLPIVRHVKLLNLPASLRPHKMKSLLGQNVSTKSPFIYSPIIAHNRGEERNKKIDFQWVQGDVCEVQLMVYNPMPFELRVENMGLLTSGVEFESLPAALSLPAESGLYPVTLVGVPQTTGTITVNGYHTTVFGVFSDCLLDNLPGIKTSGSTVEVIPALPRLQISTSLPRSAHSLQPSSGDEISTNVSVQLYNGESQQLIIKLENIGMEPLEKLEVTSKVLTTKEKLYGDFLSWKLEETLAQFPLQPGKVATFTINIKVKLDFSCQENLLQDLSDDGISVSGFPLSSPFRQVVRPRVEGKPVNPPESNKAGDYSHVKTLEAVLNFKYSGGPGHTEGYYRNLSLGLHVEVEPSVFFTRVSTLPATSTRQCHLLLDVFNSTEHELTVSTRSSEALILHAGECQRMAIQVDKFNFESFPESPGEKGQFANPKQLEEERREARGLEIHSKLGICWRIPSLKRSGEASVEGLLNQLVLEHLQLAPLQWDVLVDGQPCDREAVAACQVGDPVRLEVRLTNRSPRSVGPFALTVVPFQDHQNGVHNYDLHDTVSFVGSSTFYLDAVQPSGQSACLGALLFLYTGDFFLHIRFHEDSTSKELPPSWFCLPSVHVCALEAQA
UniProt Q9C0C2: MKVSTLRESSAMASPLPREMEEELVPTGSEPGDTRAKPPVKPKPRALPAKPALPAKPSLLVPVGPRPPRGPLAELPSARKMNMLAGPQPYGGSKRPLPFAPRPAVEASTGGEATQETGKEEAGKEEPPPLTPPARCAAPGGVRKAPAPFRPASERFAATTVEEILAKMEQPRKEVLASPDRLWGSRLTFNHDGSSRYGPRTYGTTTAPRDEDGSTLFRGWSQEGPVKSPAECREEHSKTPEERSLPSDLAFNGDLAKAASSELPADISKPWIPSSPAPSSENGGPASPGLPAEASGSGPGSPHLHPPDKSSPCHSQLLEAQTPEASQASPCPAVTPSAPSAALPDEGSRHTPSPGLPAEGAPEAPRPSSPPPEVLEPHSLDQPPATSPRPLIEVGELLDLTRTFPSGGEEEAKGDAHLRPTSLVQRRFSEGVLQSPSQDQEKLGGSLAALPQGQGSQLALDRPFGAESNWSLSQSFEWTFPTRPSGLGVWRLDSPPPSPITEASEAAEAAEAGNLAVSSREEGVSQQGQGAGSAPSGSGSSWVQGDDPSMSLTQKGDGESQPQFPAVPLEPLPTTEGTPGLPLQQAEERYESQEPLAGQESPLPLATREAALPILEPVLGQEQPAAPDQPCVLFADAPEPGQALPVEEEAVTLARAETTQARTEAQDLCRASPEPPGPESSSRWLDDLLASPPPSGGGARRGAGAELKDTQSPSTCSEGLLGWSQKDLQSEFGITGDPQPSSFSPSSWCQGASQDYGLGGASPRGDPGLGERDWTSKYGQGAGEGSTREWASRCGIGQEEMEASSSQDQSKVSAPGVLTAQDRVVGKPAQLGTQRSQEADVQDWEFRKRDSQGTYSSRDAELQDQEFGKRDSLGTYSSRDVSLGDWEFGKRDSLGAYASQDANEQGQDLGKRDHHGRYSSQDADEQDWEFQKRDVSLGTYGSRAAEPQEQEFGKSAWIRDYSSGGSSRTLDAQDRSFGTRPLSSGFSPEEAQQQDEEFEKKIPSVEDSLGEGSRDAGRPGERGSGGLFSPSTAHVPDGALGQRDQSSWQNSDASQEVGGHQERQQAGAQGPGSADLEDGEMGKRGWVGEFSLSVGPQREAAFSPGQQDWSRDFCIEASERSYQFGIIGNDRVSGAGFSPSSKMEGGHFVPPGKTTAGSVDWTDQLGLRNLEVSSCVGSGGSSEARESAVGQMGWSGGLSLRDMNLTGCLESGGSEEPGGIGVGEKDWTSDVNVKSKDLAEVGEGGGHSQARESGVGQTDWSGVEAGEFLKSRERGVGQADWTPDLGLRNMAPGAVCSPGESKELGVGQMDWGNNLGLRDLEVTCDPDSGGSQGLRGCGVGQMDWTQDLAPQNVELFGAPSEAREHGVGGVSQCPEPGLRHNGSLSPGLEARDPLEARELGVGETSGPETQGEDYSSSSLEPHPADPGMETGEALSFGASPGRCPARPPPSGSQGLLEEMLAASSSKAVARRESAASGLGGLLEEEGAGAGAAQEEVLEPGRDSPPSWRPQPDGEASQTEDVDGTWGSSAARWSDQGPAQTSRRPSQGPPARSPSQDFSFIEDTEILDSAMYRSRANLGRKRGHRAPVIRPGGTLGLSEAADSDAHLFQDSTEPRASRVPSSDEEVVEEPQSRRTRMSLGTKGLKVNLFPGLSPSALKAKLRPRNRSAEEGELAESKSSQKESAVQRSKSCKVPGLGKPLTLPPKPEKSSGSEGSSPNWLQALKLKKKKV
UniProt Q9Y5S1: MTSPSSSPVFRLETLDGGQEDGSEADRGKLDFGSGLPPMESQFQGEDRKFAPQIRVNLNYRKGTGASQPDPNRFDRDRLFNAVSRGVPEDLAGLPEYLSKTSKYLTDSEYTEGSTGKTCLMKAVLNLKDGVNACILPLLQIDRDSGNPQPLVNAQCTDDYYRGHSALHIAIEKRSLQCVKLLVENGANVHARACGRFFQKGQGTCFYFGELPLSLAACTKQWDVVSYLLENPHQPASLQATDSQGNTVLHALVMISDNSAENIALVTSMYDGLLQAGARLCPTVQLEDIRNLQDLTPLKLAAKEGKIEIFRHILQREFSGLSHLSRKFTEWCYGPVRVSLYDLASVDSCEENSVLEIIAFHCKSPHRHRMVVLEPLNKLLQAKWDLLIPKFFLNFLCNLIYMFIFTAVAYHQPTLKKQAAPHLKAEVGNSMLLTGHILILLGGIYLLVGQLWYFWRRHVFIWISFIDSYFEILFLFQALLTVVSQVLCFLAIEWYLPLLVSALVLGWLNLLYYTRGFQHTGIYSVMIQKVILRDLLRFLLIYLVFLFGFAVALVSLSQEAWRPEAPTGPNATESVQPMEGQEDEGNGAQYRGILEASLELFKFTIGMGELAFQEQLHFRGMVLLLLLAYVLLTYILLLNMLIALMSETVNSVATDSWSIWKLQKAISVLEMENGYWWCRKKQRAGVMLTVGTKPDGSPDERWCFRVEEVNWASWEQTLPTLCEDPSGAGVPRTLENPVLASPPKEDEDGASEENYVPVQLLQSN
UniProt Q5JTV8: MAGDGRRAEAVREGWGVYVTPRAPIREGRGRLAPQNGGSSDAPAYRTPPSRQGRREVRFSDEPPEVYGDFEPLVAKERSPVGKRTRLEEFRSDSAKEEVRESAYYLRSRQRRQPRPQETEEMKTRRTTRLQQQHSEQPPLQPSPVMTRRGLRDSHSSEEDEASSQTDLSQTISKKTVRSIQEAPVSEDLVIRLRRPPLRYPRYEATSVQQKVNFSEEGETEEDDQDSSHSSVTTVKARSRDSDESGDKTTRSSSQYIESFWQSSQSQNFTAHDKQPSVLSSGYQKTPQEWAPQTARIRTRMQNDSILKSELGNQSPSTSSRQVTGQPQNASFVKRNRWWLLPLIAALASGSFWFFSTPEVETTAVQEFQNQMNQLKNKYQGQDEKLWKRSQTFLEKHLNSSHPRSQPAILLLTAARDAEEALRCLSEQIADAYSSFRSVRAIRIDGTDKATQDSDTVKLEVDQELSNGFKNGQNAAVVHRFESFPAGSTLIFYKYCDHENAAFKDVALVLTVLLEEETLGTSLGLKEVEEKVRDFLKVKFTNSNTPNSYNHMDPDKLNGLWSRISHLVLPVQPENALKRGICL

Tests used:
Experiment in all cases: log2 fold change, soluble protein after heating vs DMSO (PISA); higher = thermal stabilisation; K562 cells, 10 uM, 30 min; active = over 0.2 and 3.5 SD of the protein, either way, in both replicates (recomputed)
erlotinib = compound: C#Cc1cccc(Nc2ncnc3cc(OCCOC)c(OCCOC)cc23)c1 [erlotinib]
How it was run: (§1)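 Soluble protein was defined as the supernatant after 21,000xg for 90 min. It came from K562 cells at 2×10^6 cells/mL given 10 μM compound for 30 min, heated in aliquots for 3 min across 48°C-58°C, pooled, and extracted in PBS with 0.5% NP-40 at 4°C, and was quantified by TMTpro 16plex LC-MS/MS with equalised channel sums. Thermal stability against control samples, from duplicates, is reported as log2 fold change.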

[1] = compound: C/C(=N\NC(=O)C1=CC(=CC=C1)S(=O)(=O)N2CCOCC2)/C3=C(C=CC(=C3)Cl)O
How it was run: as §1

[2] = compound: C1=CC(=C(C=C1Cl)C2=NC3=NC=CN=C3C(=N2)NC4=CC=NC=C4)F
How it was run: as §1

[3] = compound: C1=CC(=CC=C1C2=NC3=C(N2)C=C(C=C3)C(=O)N)OC4=CC=C(C=C4)Cl
How it was run: as §1

[4] = compound: C1=CC2=C(C=CC(=C2)/C=C\3/C(=O)NC(=NCC4=CC=CS4)S3)N=C1
How it was run: as §1

[5] = compound: C1=CC2=NC=CN=C2C=C1/C=C/3\C(=O)NC(=O)S3
How it was run: as §1

[6] = compound: C1=CC=C(C=C1)C2=NC(=C(N2)C3=CC=NC=C3)C4=CC(=C(C=C4)Cl)O
How it was run: as §1

[7] = compound: C1=CC=C2C(=C1)C3=NNC4=CC=CC(=C43)C2=O
How it was run: as §1

[8] = compound: C1CCN(C1)C(=O)NC2=CC=CC(=C2)NC3=NC=C(C(=N3)NCCC4=CN=CN4)Br
How it was run: as §1

[9] = compound: C1CN(CCC1(CC2=CC=C(C=C2)Cl)N)C3=NC=NC4=C3C=CN4
How it was run: as §1

IRAK-1-4 Inhibitor I = compound: C1COCCN1CCN2C3=CC=CC=C3N=C2NC(=O)C4=CC(=CC=C4)[N+](=O)[O-] [IRAK-1-4 Inhibitor I]
How it was run: as §1

ibrutinib = compound: C=CC(=O)N1CCC[C@@H](n2nc(-c3ccc(Oc4ccccc4)cc3)c3c(N)ncnc32)C1 [ibrutinib]
How it was run: as §1

[10] = compound: CC(=O)c1cnc2ccc(-c3cc(Cl)c(O)c(Cl)c3)nc2c1N[C@H]1CC[C@H](CN(C)C)CC1
How it was run: as §1

ralimetinib = compound: CC(C)(C)Cn1c(N)nc2ccc(-c3[nH]c(C(C)(C)C)nc3-c3ccc(F)cc3)nc21 [ralimetinib]
How it was run: as §1

[11] = compound: CC(C)(O)CC(=O)NCCn1ccc2ncnc(Nc3ccc(Oc4cccc(C(F)(F)F)c4)c(Cl)c3)c21
How it was run: as §1

[12] = compound: CC(C)C1=C2N=C(C=C(N2N=C1)NCC3=CC=CC=C3)NCCCCCCN
How it was run: as §1

[13] = compound: CC(C)C[C@@H](C=O)NC(=O)[C@H](CC(C)C)NC(=O)[C@H](CC(C)C)NC(=O)OCc1ccccc1
How it was run: as §1

pinometostat = compound: CC(C)N(C[C@H]1O[C@@H](n2cnc3c(N)ncnc32)[C@H](O)[C@@H]1O)[C@H]1C[C@@H](CCc2nc3cc(C(C)(C)C)ccc3[nH]2)C1 [pinometostat]
How it was run: as §1

[14] = compound: CC1=C(C(CC(=O)N1)C2=CC=C(C=C2)C(F)(F)F)C(=O)NC3=C(C=C4C(=C3)C=NN4)F
How it was run: as §1

[15] = compound: CC1=C(C2=C(C=C1)C(=O)C3=CC=CC=C3N2CCCN)C
How it was run: as §1

Measured: log2 fold change

TRUB1 (UniProt Q8WWH5)
inactive: erlotinib 0.019 | [1] -0.014 | [2] 0.016 | [3] 0.055 | [4] 0.17 | [5] 0.043 | [6] 0.007 | [7] 0.027 | [8] -0.049 | [9] 0.024 | IRAK-1-4 Inhibitor I -0.02 | ibrutinib -0.005 | [10] -0.037 | ralimetinib -0.034 | [11] 0.01 | [12] -0.047 | [13] 0.015 | pinometostat -0.037 | [14] 0.013 | [15] -0.013

TPD52L2 isoform 7 (UniProt O43399)
inactive: erlotinib -0.014 | [1] -0.023 | [2] 0 | [3] 0.01 | [4] -0.01 | [5] 0.025 | [6] 0.025 | [7] 0.001 | [8] 0.032 | [9] 0.044 | IRAK-1-4 Inhibitor I -0.004 | ibrutinib 0.003 | [10] 0.011 | ralimetinib 0.019 | [11] 0.018 | [12] 0.052 | [13] -0.011 | pinometostat -0.052 | [14] 0.001 | [15] 0.008

TPM3 isoform 2 (UniProt P06753)
inactive: erlotinib -0.035 | [1] -0.03 | [2] 0.048 | [3] -0.013 | [4] -0.041 | [5] 0.02 | [6] -0.009 | [7] 0.049 | [8] 0.078 | [9] 0.05 | IRAK-1-4 Inhibitor I 0.11 | ibrutinib -0.007 | [10] -0.044 | ralimetinib 0.068 | [11] 0.179 | [12] 0.044 | [13] 0.003 | pinometostat -0.027 | [14] 0.065 | [15] -0.015

TRIR (UniProt Q9BQ61)
inactive: erlotinib -0.031 | [1] -0.067 | [2] 0.043 | [3] 0.012 | [4] -0.071 | [5] 0.041 | [6] -0.057 | [7] 0.015 | [8] 0.039 | [9] 0.032 | IRAK-1-4 Inhibitor I -0.029 | ibrutinib 0.02 | [10] 0.021 | ralimetinib -0.039 | [11] 0.041 | [12] 0.107 | [13] 0.053 | pinometostat -0.072 | [14] 0.029 | [15] -0.027

TRNT1 (UniProt Q96Q11)
inactive: erlotinib 0.107 | [1] 0.015 | [2] 0.063 | [3] -0.02 | [4] 0.052 | [5] 0.005 | [6] 0.05 | [7] 0.043 | [8] 0.003 | [9] -0.003 | IRAK-1-4 Inhibitor I 0.035 | ibrutinib -0.014 | [10] -0.042 | ralimetinib 0.014 | [11] -0.162 | [12] -0.063 | [13] -0.003 | pinometostat 0.02 | [14] -0.014 | [15] 0.114

TRIP4 (UniProt Q15650)
inactive: erlotinib 0.057 | [1] 0.076 | [2] -0.044 | [3] -0.01 | [4] -0.023 | [5] 0.036 | [6] -0.025 | [7] 0.057 | [8] 0.012 | [9] -0.045 | IRAK-1-4 Inhibitor I -0.088 | ibrutinib -0.028 | [10] 0 | ralimetinib 0.076 | [11] 0.004 | [12] -0.051 | [13] 0.062 | pinometostat 0.078 | [14] -0.026 | [15] 0.025

Taken from the results shown (2 entries):
TRIR (UniProt Q9BQ61)
inactive: erlotinib -0.031 | [1] -0.067 | [2] 0.043 | [3] 0.012 | [4] -0.071 | [5] 0.041 | [6] -0.057 | [7] 0.015 | [8] 0.039 | [9] 0.032 | IRAK-1-4 Inhibitor I -0.029 | ibrutinib 0.02 | [10] 0.021 | ralimetinib -0.039 | [11] 0.041 | [12] 0.107 | [13] 0.053 | pinometostat -0.072 | [14] 0.029 | [15] -0.027

TRNT1 (UniProt Q96Q11)
inactive: erlotinib 0.107 | [1] 0.015 | [2] 0.063 | [3] -0.02 | [4] 0.052 | [5] 0.005 | [6] 0.05 | [7] 0.043 | [8] 0.003 | [9] -0.003 | IRAK-1-4 Inhibitor I 0.035 | ibrutinib -0.014 | [10] -0.042 | ralimetinib 0.014 | [11] -0.162 | [12] -0.063 | [13] -0.003 | pinometostat 0.02 | [14] -0.014 | [15] 0.114

(cont.)

TOR2A (UniProt Q5JU69)
inactive: erlotinib 0.046 | [1] -0.138 | [2] 0.017 | [3] -0.03 | [4] -0.045 | [5] 0.141 | [6] 0.064 | [7] -0.066 | [8] -0.063 | [9] 0.083 | IRAK-1-4 Inhibitor I 0.082 | ibrutinib 0.051 | [10] 0.089 | ralimetinib -0.006 | [11] 0.047 | [12] 0.014 | [13] 0.033 | pinometostat -0.026 | [14] 0.08 | [15] 0.112

TRAPPC5 (UniProt Q8IUR0)
inactive: erlotinib 0.015 | [1] 0.139 | [2] -0.023 | [3] -0.011 | [4] 0.083 | [5] 0.002 | [6] 0.045 | [7] 0.003 | [8] 0.031 | [9] -0.081 | IRAK-1-4 Inhibitor I -0.024 | ibrutinib 0 | [10] -0.009 | ralimetinib 0.101 | [11] -0.119 | [12] -0.094 | [13] 0.038 | pinometostat 0.078 | [14] 0.028 | [15] -0.004

TPM4 isoform 2 (UniProt P67936)
inactive: erlotinib -0.03 | [1] 0.07 | [2] 0.073 | [3] -0.025 | [4] -0.272 | [5] 0.003 | [6] -0.019 | [7] 0.02 | [8] 0.031 | [9] 0.066 | IRAK-1-4 Inhibitor I 0.048 | ibrutinib 0 | [10] 0.046 | ralimetinib -0.036 | [11] 0.02 | [12] 0.025 | [13] 0.036 | pinometostat -0.114 | [14] 0.016 | [15] -0.044

TOR1B (UniProt O14657)
inactive: erlotinib -0.03 | [1] 0.024 | [2] -0.015 | [3] -0.013 | [4] 0.04 | [5] -0.002 | [6] -0.025 | [7] -0.026 | [8] 0.001 | [9] -0.024 | IRAK-1-4 Inhibitor I -0.022 | ibrutinib 0 | [10] 0.008 | ralimetinib -0.088 | [11] 0.007 | [12] -0.066 | [13] 0.055 | pinometostat 0.006 | [14] 0.052 | [15] -0.004

TRAPPC9 isoform 2 (UniProt Q96Q05)
inactive: erlotinib 0.045 | [1] 0.036 | [2] -0.061 | [3] 0.016 | [4] -0.028 | [5] 0.005 | [6] 0.055 | [7] 0.05 | [8] -0.041 | [9] 0.262 | IRAK-1-4 Inhibitor I -0.047 | ibrutinib -0.098 | [10] -0.015 | ralimetinib 0.006 | [11] -0.032 | [12] 0.02 | [13] -0.048 | pinometostat 0.046 | [14] 0.045 | [15] 0.034

TRIM33 (UniProt Q9UPN9)
inactive: erlotinib 0.114 | [1] 0.133 | [2] -0.001 | [3] -0.083 | [4] 0.086 | [5] 0.023 | [6] 0.013 | [7] 0.05 | [8] -0.015 | [9] -0.053 | IRAK-1-4 Inhibitor I -0.034 | ibrutinib 0 | [10] -0.188 | ralimetinib 0.084 | [11] -0.16 | [12] -0.132 | [13] 0.068 | pinometostat 0.056 | [14] 0.017 | [15] 0.034

TRIM56 (UniProt Q9BRZ2)
inactive: erlotinib -0.062 | [1] -0.132 | [2] -0.263 | [3] 0.077 | [4] -0.028 | [5] -0.054 | [6] -0.017 | [7] -0.063 | [8] 0.013 | [9] -0.183 | IRAK-1-4 Inhibitor I -0.178 | ibrutinib 0.186 | [10] -0.013 | ralimetinib 0.096 | [11] 0.079 | [12] 0.004 | [13] 0.166 | pinometostat 0.255 | [14] -0.002 | [15] -0.203

TNKS1BP1 (UniProt Q9C0C2)
inactive: erlotinib 0.005 | [1] -0.03 | [2] -0.03 | [3] 0.05 | [4] -0.001 | [5] 0.021 | [6] -0.039 | [7] -0.053 | [8] 0.002 | [9] 0.066 | IRAK-1-4 Inhibitor I 0.023 | ibrutinib 0.044 | [10] -0.018 | ralimetinib 0.007 | [11] 0.048 | [12] 0.108 | [13] 0.027 | pinometostat -0.022 | [14] 0.034 | [15] 0.053

TRPV2 (UniProt Q9Y5S1)
inactive: erlotinib 0.01 | [1] 0.059 | [2] 0.036 | [3] -0.007 | [4] -0.009 | [5] 0.05 | [6] 0.037 | [7] -0.04 | [8] -0.066 | [9] 0.017 | IRAK-1-4 Inhibitor I 0.008 | ibrutinib 0 | [10] 0 | ralimetinib -0.02 | [11] -0.032 | [12] 0.175 | [13] -0.056 | pinometostat -0.02 | [14] 0.002 | [15] 0.057

TOR1AIP1 isoform 3 (UniProt Q5JTV8)
inactive: erlotinib -0.02 | [1] 0.024 | [2] 0.038 | [3] 0.001 | [4] -0.022 | [5] 0.034 | [6] 0.027 | [7] -0.065 | [8] -0.015 | [9] 0.038 | IRAK-1-4 Inhibitor I 0.017 | ibrutinib 0.02 | [10] 0.003 | ralimetinib 0.005 | [11] 0.015 | [12] 0.049 | [13] -0.022 | pinometostat -0.022 | [14] 0.008 | [15] -0.004
